# System: HCT-116
# Assay: Antiproliferative activity against human HCT-116 cells assessed as inhibition of cell growth measured after 48 hrs by CCK8 method
# Type: functional, cell-based
# Conditions: HCT-116, 48 h
compound,measurement,value
COc1cc2c(c(OC)c1OC)-c1ccc(OC)c(=O)cc1[C@@H](NC(C)=O)CC2 [COLCHICINE],IC50,39 nM

# Reference: ChEMBL document CHEMBL5518189, “Design, synthesis and biological evaluation of 1,2,3-triazole benzothiazole derivatives as tubulin polymerization inhibitors with potent anti-esophageal cancer activities” (Eur J Med Chem, 2024)
